Results are given in words; binding and its absence hold for the method and conditions named. Binding seen in cells or lysates may run through a third protein. Some entries that bind do so weakly or less than the wild type. For some of these results: Where a sequence is shown, tags or fusion partners need not be part of it. Each block holds one molecule with its values, some of them ahead of it.
How the values were obtained:
[1] = target: T1, PBX2 (human (endogenous in GC cell lines)) (UniProt P40425); assay: co-IP; endogenous proteins; whole-cell lysate of GC cells precipitated with anti-HOXA6 or anti-PBX2 (normal mouse IgG as control), blotted with the other antibody; 3 ug antibody and protein agarose beads, 4 C, 3 h
T1 sequence: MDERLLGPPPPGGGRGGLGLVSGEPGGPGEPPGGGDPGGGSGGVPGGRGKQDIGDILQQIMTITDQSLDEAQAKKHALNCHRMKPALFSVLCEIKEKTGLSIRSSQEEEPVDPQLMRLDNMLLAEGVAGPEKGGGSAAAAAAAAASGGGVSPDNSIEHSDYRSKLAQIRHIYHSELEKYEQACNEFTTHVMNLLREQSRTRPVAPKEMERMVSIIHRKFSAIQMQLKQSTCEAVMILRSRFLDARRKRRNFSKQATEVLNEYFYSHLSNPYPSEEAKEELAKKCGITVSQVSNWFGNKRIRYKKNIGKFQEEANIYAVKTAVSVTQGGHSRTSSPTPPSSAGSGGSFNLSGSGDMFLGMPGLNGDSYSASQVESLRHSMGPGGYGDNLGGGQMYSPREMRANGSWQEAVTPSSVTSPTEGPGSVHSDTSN

Protein sequences, listed by entry. Tags and fused reporters are not part of them.
UniProt P31267: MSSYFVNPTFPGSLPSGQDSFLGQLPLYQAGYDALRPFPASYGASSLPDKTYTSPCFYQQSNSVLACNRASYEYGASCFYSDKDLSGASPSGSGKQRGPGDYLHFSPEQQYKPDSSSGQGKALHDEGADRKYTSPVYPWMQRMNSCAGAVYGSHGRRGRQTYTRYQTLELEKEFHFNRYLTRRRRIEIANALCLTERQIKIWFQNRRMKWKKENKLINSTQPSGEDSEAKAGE

HA-tagged PBX2 (human) = target: T2, HA-tagged PBX2 (human) (UniProt P40425); assay: co-IP; HOXA6-Flag and PBX2-HA co-transfected into AGS and BCG-823 cells; whole-cell extracts precipitated with anti-Flag and blotted with anti-HA, or precipitated with anti-HA and blotted with anti-Flag (normal mouse IgG as control)
T2 sequence: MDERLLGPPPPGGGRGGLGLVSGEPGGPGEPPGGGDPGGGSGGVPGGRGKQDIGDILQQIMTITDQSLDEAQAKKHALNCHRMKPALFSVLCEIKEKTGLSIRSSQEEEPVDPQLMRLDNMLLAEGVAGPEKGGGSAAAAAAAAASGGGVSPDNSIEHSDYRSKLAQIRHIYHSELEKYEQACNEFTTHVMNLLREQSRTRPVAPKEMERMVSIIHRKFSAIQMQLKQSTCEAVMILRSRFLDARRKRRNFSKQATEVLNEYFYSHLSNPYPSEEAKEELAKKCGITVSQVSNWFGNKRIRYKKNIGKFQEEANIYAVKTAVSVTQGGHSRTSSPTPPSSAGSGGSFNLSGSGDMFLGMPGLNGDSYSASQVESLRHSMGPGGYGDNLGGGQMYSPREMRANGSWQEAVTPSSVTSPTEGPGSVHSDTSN

[2] = target: HOXA6 (human (endogenous in GC cell lines)) (UniProt P31267); assay: co-IP; endogenous proteins; whole-cell lysate of GC cells precipitated with anti-HOXA6 or anti-PBX2 (normal mouse IgG as control), blotted with the other antibody; 3 ug antibody and protein agarose beads, 4 C, 3 h
[3] = target: Flag-tagged HOXA6 (human) (UniProt P31267); assay: co-IP; HOXA6-Flag and PBX2-HA co-transfected into AGS and BCG-823 cells; whole-cell extracts precipitated with anti-Flag and blotted with anti-HA, or precipitated with anti-HA and blotted with anti-Flag (normal mouse IgG as control)

binding [2]: binds
B1: PBX2 (protein, UniProt P40425 1-430)
chain: MDERLLGPPPPGGGRGGLGLVSGEPGGPGEPPGGGDPGGGSGGVPGGRGKQDIGDILQQIMTITDQSLDEAQAKKHALNCHRMKPALFSVLCEIKEKTGLSIRSSQEEEPVDPQLMRLDNMLLAEGVAGPEKGGGSAAAAAAAAASGGGVSPDNSIEHSDYRSKLAQIRHIYHSELEKYEQACNEFTTHVMNLLREQSRTRPVAPKEMERMVSIIHRKFSAIQMQLKQSTCEAVMILRSRFLDARRKRRNFSKQATEVLNEYFYSHLSNPYPSEEAKEELAKKCGITVSQVSNWFGNKRIRYKKNIGKFQEEANIYAVKTAVSVTQGGHSRTSSPTPPSSAGSGGSFNLSGSGDMFLGMPGLNGDSYSASQVESLRHSMGPGGYGDNLGGGQMYSPREMRANGSWQEAVTPSSVTSPTEGPGSVHSDTSN

binding [3]: binds
B2: HA-tagged PBX2 (protein, UniProt P40425 1-430)
chain: MDERLLGPPPPGGGRGGLGLVSGEPGGPGEPPGGGDPGGGSGGVPGGRGKQDIGDILQQIMTITDQSLDEAQAKKHALNCHRMKPALFSVLCEIKEKTGLSIRSSQEEEPVDPQLMRLDNMLLAEGVAGPEKGGGSAAAAAAAAASGGGVSPDNSIEHSDYRSKLAQIRHIYHSELEKYEQACNEFTTHVMNLLREQSRTRPVAPKEMERMVSIIHRKFSAIQMQLKQSTCEAVMILRSRFLDARRKRRNFSKQATEVLNEYFYSHLSNPYPSEEAKEELAKKCGITVSQVSNWFGNKRIRYKKNIGKFQEEANIYAVKTAVSVTQGGHSRTSSPTPPSSAGSGGSFNLSGSGDMFLGMPGLNGDSYSASQVESLRHSMGPGGYGDNLGGGQMYSPREMRANGSWQEAVTPSSVTSPTEGPGSVHSDTSN

More lines, now with the values behind:

Molecule: HOXA6 (from UniProt P31267 1-233)
binding [1]: binds

Molecule: Flag-tagged HOXA6 (from UniProt P31267 1-233)
binding (HA-tagged PBX2 (human)): binds

Source: PMC7993744
